Measurements as given in PMC8651739.
No constants are given. Whether binding was seen depends on the method and setting. In cells and extracts the contact can be indirect. Some binding calls cover weakened binding; strength is not graded here. Sequences can lack the tags named with a protein.

Chains of the proteins cited; added tags and fusions are not shown.
UniProt Q14145: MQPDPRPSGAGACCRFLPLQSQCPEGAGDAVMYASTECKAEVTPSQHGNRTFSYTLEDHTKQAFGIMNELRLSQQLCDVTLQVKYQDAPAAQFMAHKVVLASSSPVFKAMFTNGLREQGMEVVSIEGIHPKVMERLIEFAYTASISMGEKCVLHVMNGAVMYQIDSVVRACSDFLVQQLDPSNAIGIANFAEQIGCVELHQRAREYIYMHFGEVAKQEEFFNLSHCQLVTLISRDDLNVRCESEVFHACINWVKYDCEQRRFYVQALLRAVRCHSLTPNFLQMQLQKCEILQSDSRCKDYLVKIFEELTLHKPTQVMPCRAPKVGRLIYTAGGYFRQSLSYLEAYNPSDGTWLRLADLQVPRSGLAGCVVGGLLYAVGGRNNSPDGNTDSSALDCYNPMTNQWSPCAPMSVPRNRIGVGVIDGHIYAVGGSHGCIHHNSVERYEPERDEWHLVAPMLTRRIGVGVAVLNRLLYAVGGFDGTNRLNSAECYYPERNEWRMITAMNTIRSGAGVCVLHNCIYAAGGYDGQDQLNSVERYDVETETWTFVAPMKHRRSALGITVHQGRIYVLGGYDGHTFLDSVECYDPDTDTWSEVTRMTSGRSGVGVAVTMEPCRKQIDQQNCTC

Molecular target: kelch-like ECH-associated protein 1 (human (endogenous in A2780 and A2780/DDP)) (UniProt Q14145)
Assay: co-IP; endogenous proteins; A2780 or A2780/DDP cells lysed in Pierce IP buffer with protease and phosphatase inhibitors; lysates probed overnight at 4 °C with rabbit anti-KEAP1 (IgG as control), protein G beads, Western blot

B1: O-linked N-acetylglucosamine (GlcNAc) transferase (enzyme, UniProt O15294 1-1046)
chain: MASSVGNVADSTEPTKRMLSFQGLAELAHREYQAGDFEAAERHCMQLWRQEPDNTGVLLLLSSIHFQCRRLDRSAHFSTLAIKQNPLLAEAYSNLGNVYKERGQLQEAIEHYRHALRLKPDFIDGYINLAAALVAAGDMEGAVQAYVSALQYNPDLYCVRSDLGNLLKALGRLEEAKACYLKAIETQPNFAVAWSNLGCVFNAQGEIWLAIHHFEKAVTLDPNFLDAYINLGNVLKEARIFDRAVAAYLRALSLSPNHAVVHGNLACVYYEQGLIDLAIDTYRRAIELQPHFPDAYCNLANALKEKGSVAEAEDCYNTALRLCPTHADSLNNLANIKREQGNIEEAVRLYRKALEVFPEFAAAHSNLASVLQQQGKLQEALMHYKEAIRISPTFADAYSNMGNTLKEMQDVQGALQCYTRAIQINPAFADAHSNLASIHKDSGNIPEAIASYRTALKLKPDFPDAYCNLAHCLQIVCDWTDYDERMKKLVSIVADQLEKNRLPSVHPHHSMLYPLSHGFRKAIAERHGNLCLDKINVLHKPPYEHPKDLKLSDGRLRVGYVSSDFGNHPTSHLMQSIPGMHNPDKFEVFCYALSPDDGTNFRVKVMAEANHFIDLSQIPCNGKAADRIHQDGIHILVNMNGYTKGARNELFALRPAPIQAMWLGYPGTSGALFMDYIITDQETSPAEVAEQYSEKLAYMPHTFFIGDHANMFPHLKKKAVIDFKSNGHIYDNRIVLNGIDLKAFLDSLPDVKIVKMKCPDGGDNADSSNTALNMPVIPMNTIAEAVIEMINRGQIQITINGFSISNGLATTQINNKAATGEEVPRTIIVTTRSQYGLPEDAIVYCNFNQLYKIDPSTLQMWANILKRVPNSVLWLLRFPAVGEPNIQQYAQNMGLPQNRIIFSPVAPKEEHVRRGQLADVCLDTPLCNGHTTGMDVLWAGTPMVTMPGETLASRVAASQLTCLGCLELIAKNRQEYEDIAVKLGTDLEYLKKVRGKVWKQRISSPLFNTKQYTMELERLYLQMWEHYAAGNKPDHMIKPVEVTESA
With B1 as the binder, how does the binding read?
The binding was “binds”.
